From patent US20260194540A1 (ARIZONA BOARD OF REGENTS ON BEHALF OF ARIZONA STATE …, published 2026) come the findings set out here.

Protein sequences, listed by entry. Tags and fused reporters are not part of them.
UniProt Q13148: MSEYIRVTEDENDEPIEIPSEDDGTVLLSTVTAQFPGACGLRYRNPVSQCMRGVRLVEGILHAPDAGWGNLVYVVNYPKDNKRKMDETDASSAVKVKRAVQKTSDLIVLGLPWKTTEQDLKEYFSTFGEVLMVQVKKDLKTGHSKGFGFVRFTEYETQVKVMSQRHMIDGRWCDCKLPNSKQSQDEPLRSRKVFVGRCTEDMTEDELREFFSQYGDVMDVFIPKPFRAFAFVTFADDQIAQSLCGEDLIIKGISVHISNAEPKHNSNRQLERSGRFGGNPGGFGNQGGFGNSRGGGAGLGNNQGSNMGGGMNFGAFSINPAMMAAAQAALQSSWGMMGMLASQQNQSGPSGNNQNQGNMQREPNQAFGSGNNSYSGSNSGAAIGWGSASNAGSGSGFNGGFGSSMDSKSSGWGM

Results are given in words; binding and its absence hold for the method and conditions named. Some entries that bind do so weakly or less than the wild type.

This assay deals with TDP-43 associated with frontotemporal dementia (FTD), from FTD human brain tissue (human) (UniProt Q13148). As to the kind of experiment: phage ELISA on human brain tissue. A general note: In an ELISA, binding on a coated surface is turned into a signal by an enzyme label.

B1: TDP-43 monomer clone #5 (scFv)
scFv: MAEVQLLESGGGLVRPGGSLRLSCAASGFTFSSYAMSWVRQAPGKGLEWVSDIANTGDATGYADSVKGRFTISRDNSKNTLYLQMNSLRAEDTAVYYCAKTGAAFDYWGQGTLVTVSSGGGGSGGGGSGGGGSTDIQMTQSPSSLSASVGDRVTITCRASQSISSYLNWYQQKPGKAPKLLIYAASTLQSGVPSRFSGSGSGTDFTLTISSLQPEDFATYYCQQSSSDPATFGQGTKVEIKRAA
notes: Tested as scFv attached to a phage particle, tagged with a signal moiety when used for detection; also called monomer phage #5
Regarding B1, the binding entry is “binds”.
